Data source: PubChem BioAssay AID652259 (Drosophila RNAi Screening Center, 2013)
In all, the deposit lists about 22,000 reagents; this is an unselected part of those that have a named target and a result. In the full data, 233 (1.1%) were called active. 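Light values are raw, unnormalised plate reads; the ratio scores behind the reporter calls were not deposited.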 A plus sign joins genes that one reagent is predicted to hit. The record does not give: the amount of reagent, the time to read-out, the dose of the treatment.

Purpose: 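Knock-downs that push a Wingless-driven reporter up or down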 (primary screen)
System: Drosophila clone 8 imaginal disc epithelial cells
Reagents: long dsRNA against Drosophila genes
Conditions: pathway stimulated by co-transfected Wingless expression plasmid
Detection: 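Dual luciferase reads per well after Wingless plasmid stimulation: reporter firefly light and Renilla control light; activity is firefly divided by Renilla, a ratio not deposited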
Scale: firefly reporter light: higher = more Wg reporter light, before normalisation; Renilla control light: higher = more transfected or surviving cells
Hit rule: 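a knock-down is a candidate when at least two out of four statistical tests show it departing from its plate mean; one test alone signals a weak candidate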
Meaning of the calls: active = candidate regulator (raises or lowers reporter); inactive = not a candidate

Gene | dsRNA | firefly reporter light, replicate 1 | firefly reporter light, replicate 2 | Renilla control light, replicate 1 | Renilla control light, replicate 2 | Call
TTLL6B | DRSC15932 | 9843 | – | 3824 | – | inactive
Atf6 | DRSC04743 | 24663 | 7.19e5 | 13161 | 3.29e5 | inactive
Atf6 | DRSC04889 | 2489 | 6809 | 492 | 2973 | inactive
Mcm5 | DRSC16735 | 12587 | – | 3303 | – | inactive
CG7548 | DRSC10874 | 1609 | 8039 | 1257 | 3549 | inactive
Tudor-SN | DRSC08581 | 7593 | – | 2650 | – | inactive
CG34148 + P5CDh2 | DRSC13519 | 3210 | – | 1632 | – | inactive
JYalpha (retired record) + JYalpha | DRSC21700 | 8.13e5 | 7.45e5 | 4.99e5 | 3.45e5 | inactive
mldr | DRSC18100 | 28188 | – | 12134 | – | inactive
CG34230 | DRSC05317 | 17081 | – | 17552 | – | inactive
CG13460 | DRSC10007 | 5008 | – | 2316 | – | inactive
GILT3 | DRSC14672 | 12400 | – | 12651 | – | inactive
CG2233 | DRSC18217 | 2193 | 4281 | 1035 | 1364 | inactive
CG4962 | DRSC10464 | 7958 | – | 3325 | – | inactive
7SLRNA:CR42652 + 7SLRNA:CR32864 | DRSC22968 | 5.89e5 | 6.22e5 | 2.39e5 | 2.85e5 | inactive
Gga | DRSC18260 | 1522 | 4208 | 660 | 1655 | inactive
CG34280 | DRSC13229 | 4338 | – | 3152 | – | inactive
tai | DRSC02207 | 1481 | 3929 | 432 | 730 | inactive
tai | DRSC02673 | 1625 | 5168 | 610 | 2760 | inactive
prage | DRSC17957 | 37440 | – | 13890 | – | inactive
prage | DRSC17958 | 4022 | 9920 | 784 | 1747 | inactive
prage | DRSC18490 | 20422 | – | 13452 | – | inactive
prage | DRSC18497 | 29681 | – | 16679 | – | inactive
CG9287 | DRSC03186 | 2969 | 8835 | 932 | 3703 | inactive
CG9287 | DRSC22790 | 5.30e5 | 5.05e5 | 2.15e5 | 2.61e5 | inactive
CG12391 | DRSC06147 | 10972 | – | 3296 | – | inactive
CG1409 | DRSC17910 | 25061 | – | 11004 | – | inactive
Acox3 | DRSC03251 | 3276 | 6564 | 547 | 585 | inactive
CG2162 | DRSC08557 | 2845 | – | 627 | – | inactive

Copied from the entries so far (4 entries):
Gene | dsRNA | firefly reporter light, replicate 1 | firefly reporter light, replicate 2 | Renilla control light, replicate 1 | Renilla control light, replicate 2 | Call
Mcm5 | DRSC16735 | 12587 | – | 3303 | – | inactive
CG7548 | DRSC10874 | 1609 | 8039 | 1257 | 3549 | inactive
Tudor-SN | DRSC08581 | 7593 | – | 2650 | – | inactive
CG34148 + P5CDh2 | DRSC13519 | 3210 | – | 1632 | – | inactive
